Assay results: PMC6627288
Construct, isoform or probe ends are uncertain for at least one entry. For part of these data: At least one result comes from cells or an extract, where the contact may be indirect. For part of these data: The comparison behind a weaker result is the experiment's own reference, which may not be listed here. For part of these data: At least one verdict was read from the data and is not stated in words by the source. For part of these data: Protein sequences can lack the tags named with them.

How the values were obtained:
[1] = target: HER2 receptor on SK-BR-3 cells (UniProt P04626); assay: TSM acoustic sensor (QCM); conditions: whole SK-BR-3 cells, 5e4 cells/mL, protein on the cell surface, label: 5'-biotin
[2] = target: PTK7 receptor on MDA-MB-231 cells (UniProt Q13308); assay: TSM acoustic sensor (QCM); conditions: whole MDA-MB-231 cells, 5e5 cells/mL (Figure S2), 0.5 uM aptamer, binding attributed to PTK7; protein on the cell surface; label: 5'-biotin; single-stranded …
[3] = target: T1, PTK7 protein (UniProt Q13308); assay: binding assay; conditions: TSM flow injection on neutravidin/gold; aptamers immobilized in PBS (10 mM NaH2PO4, 1.8 mM KH2PO4, 137 mM NaCl, 2.7 mM KCl, pH 7.4); cells in PBS with DMEM; label: 5'-biotin; single-stranded DNA
T1 sequence (looked up, limits assumed): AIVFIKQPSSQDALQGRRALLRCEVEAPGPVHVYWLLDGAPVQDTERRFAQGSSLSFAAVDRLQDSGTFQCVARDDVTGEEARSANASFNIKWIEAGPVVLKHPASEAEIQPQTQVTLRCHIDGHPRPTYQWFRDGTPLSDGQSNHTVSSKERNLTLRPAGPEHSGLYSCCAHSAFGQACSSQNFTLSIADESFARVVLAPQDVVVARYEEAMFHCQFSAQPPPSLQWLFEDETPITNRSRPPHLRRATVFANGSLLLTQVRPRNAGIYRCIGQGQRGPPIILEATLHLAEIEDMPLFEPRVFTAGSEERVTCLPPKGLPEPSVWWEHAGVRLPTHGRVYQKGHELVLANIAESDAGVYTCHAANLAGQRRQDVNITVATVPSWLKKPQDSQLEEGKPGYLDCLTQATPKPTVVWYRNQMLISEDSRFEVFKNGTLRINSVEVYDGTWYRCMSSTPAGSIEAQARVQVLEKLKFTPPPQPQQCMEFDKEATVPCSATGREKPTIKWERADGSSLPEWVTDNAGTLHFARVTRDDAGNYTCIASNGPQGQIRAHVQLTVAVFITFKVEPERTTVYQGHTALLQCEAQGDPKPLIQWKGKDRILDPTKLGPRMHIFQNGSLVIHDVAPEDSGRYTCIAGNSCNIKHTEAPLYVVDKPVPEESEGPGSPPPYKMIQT

[4] = target: HER2 protein (UniProt P04626); assay: binding assay; conditions: TSM flow injection on neutravidin/gold; aptamers immobilized in PBS (10 mM NaH2PO4, 1.8 mM KH2PO4, 137 mM NaCl, 2.7 mM KCl, pH 7.4); cells in PBS with DMEM; label: 5'-biotin; single-stranded DNA

“AACCGCCCAAATCCCTAAGAGTCTGCACTTGTCATTTTGTATATGTATTTGGTTTTTGGCTCTCACAGACACACTACACACGCACA [HB5]”: binds ([1]; 0.25 uM aptamer, single-stranded DNA).

“ATCTAACTGCTGCGCCGCCGGGAAAATACTGTACGGTTAGA [sgc8c]” was tested, and the binding result ([1]; non-specific control, 0.5 uM aptamer, much lower response, single-stranded …) was “binds more weakly”, the binding result [2] was “binds” and the Kd [3] was 1 nM.

“TCTAAAAGGATTCTTCCCAAGGGGATCCAATTCAAACAGC [HeA2_3]” was tested, and the binding result ([1]; 0.5 uM aptamer, higher response than HB5, single-stranded DNA) was “binds” and the Kd [4] was 6.2 nM.
